Results deposited as PubChem BioAssay AID1224830 (NIAID, 2016).

- Aim: 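Host factors that control LPS-induced TNF expression in human macrophages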 (primary screen)
- Cell system: human THP-1 monocytic leukaemia cells, TNF dual-luciferase reporter clone, PMA-differentiated to macrophage-like cells
- Knock-down reagent: siRNA pool against human genes, 50 nM
- Timing: LPS for 4 h, given about 3 days after siRNA transfection
- Conditions: bacterial LPS (TLR4 ligand), 10 ng/ml
- Read-out: 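TNF firefly reporter luminescence divided by renilla, normalised to the plate median, then turned into a robust z-score for each replicate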
- Scale: TNF reporter robust z-score: higher = stronger TNF reporter response to LPS
- Call rule: 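Each well counts as active if its z-score is over 2.8 or under -1.5; controls are left without a call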
In all, the deposit lists about 18,000 reagents; this is an unselected part. About 2,900 of them (16%) were called active. 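Calls are made per well; low scores hint the gene aids the LPS response, high scores that it dampens it.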 Repeated entries: four replicate wells of each siRNA pool. Reagent sequences are not shown.

| gene | TNF reporter robust z-score | Outcome |
| --- | --- | --- |
| HNRNPUL1 (heterogeneous nuclear ribonucleoprotein U like 1) | 1.34 | inactive |
| HNRNPUL1 (heterogeneous nuclear ribonucleoprotein U like 1) | 2.21 | inactive |
| HNRNPUL1 (heterogeneous nuclear ribonucleoprotein U like 1) | -0.99 | inactive |
| HNRNPUL1 (heterogeneous nuclear ribonucleoprotein U like 1) | -0.95 | inactive |
| GLP1R (glucagon like peptide 1 receptor) | -0.2 | inactive |
| GLP1R (glucagon like peptide 1 receptor) | -0.36 | inactive |
| GLP1R (glucagon like peptide 1 receptor) | -0.59 | inactive |
| GLP1R (glucagon like peptide 1 receptor) | -0.14 | inactive |
| ABL1 (ABL proto-oncogene 1, non-receptor tyrosine kinase) | 1.81 | inactive |
| ABL1 (ABL proto-oncogene 1, non-receptor tyrosine kinase) | 2.19 | inactive |
| ABL1 (ABL proto-oncogene 1, non-receptor tyrosine kinase) | 1.58 | inactive |
| ABL1 (ABL proto-oncogene 1, non-receptor tyrosine kinase) | 2.65 | inactive |
| SLC4A1 | 0.93 | inactive |
| SLC4A1 | 0.44 | inactive |
| SLC4A1 | 0.1 | inactive |
| SLC4A1 | 0.66 | inactive |
| DET1 (DET1 partner of COP1 E3 ubiquitin ligase) | -1.67 | active |
| DET1 (DET1 partner of COP1 E3 ubiquitin ligase) | -0.59 | inactive |
| DET1 (DET1 partner of COP1 E3 ubiquitin ligase) | -1.34 | inactive |
| DET1 (DET1 partner of COP1 E3 ubiquitin ligase) | -0.45 | inactive |
| GDF5 (growth differentiation factor 5) | 1.02 | inactive |
| GDF5 (growth differentiation factor 5) | 2.52 | inactive |
| GDF5 (growth differentiation factor 5) | 0.37 | inactive |
| GDF5 (growth differentiation factor 5) | 1.71 | inactive |
| TRAF3IP3 (TRAF3 interacting protein 3) | – | inactive |
| TRAF3IP3 (TRAF3 interacting protein 3) | -1.18 | inactive |
| TRAF3IP3 (TRAF3 interacting protein 3) | -0.98 | inactive |
| TRAF3IP3 (TRAF3 interacting protein 3) | -1.15 | inactive |
| TRAF3IP3 (TRAF3 interacting protein 3) | -0.97 | inactive |
| ITCH (itchy E3 ubiquitin protein ligase) | -0.5 | inactive |
| ITCH (itchy E3 ubiquitin protein ligase) | -0.23 | inactive |
| ITCH (itchy E3 ubiquitin protein ligase) | 0.41 | inactive |
| ITCH (itchy E3 ubiquitin protein ligase) | 0.78 | inactive |
| EIF3K (eukaryotic translation initiation factor 3 subunit K) | -0.81 | inactive |
| EIF3K (eukaryotic translation initiation factor 3 subunit K) | -0.13 | inactive |
| EIF3K (eukaryotic translation initiation factor 3 subunit K) | -0.2 | inactive |
| EIF3K (eukaryotic translation initiation factor 3 subunit K) | -0.27 | inactive |
| GBGT1 | -0.69 | inactive |
| GBGT1 | 0.43 | inactive |
| GBGT1 | -1.07 | inactive |
| GBGT1 | 0.3 | inactive |
| SLIT2 (slit guidance ligand 2) | 0.32 | inactive |
| SLIT2 (slit guidance ligand 2) | -0.33 | inactive |
| SLIT2 (slit guidance ligand 2) | -0.05 | inactive |
| SLIT2 (slit guidance ligand 2) | 1.29 | inactive |
| ZNF826P (zinc finger protein 826, pseudogene) | 0.66 | inactive |
| ZNF826P (zinc finger protein 826, pseudogene) | -0.41 | inactive |
| ZNF826P (zinc finger protein 826, pseudogene) | -0.34 | inactive |
| ZNF826P (zinc finger protein 826, pseudogene) | 1.05 | inactive |
| GTF2H1 (general transcription factor IIH subunit 1) | -0.01 | inactive |
| GTF2H1 (general transcription factor IIH subunit 1) | -0.2 | inactive |
| GTF2H1 (general transcription factor IIH subunit 1) | 0.11 | inactive |
| GTF2H1 (general transcription factor IIH subunit 1) | -0.27 | inactive |
| HDAC2 (histone deacetylase 2) | -1.4 | inactive |
| HDAC2 (histone deacetylase 2) | -1.59 | active |
| HDAC2 (histone deacetylase 2) | -0.71 | inactive |
| HDAC2 (histone deacetylase 2) | -1.33 | inactive |
| CDV3 (CDV3 homolog) | 2.49 | inactive |
| CDV3 (CDV3 homolog) | 1.64 | inactive |
| CDV3 (CDV3 homolog) | 1.16 | inactive |
| CDV3 (CDV3 homolog) | 2.02 | inactive |
| GIMAP1 (GTPase, IMAP family member 1) | 0.18 | inactive |
| GIMAP1 (GTPase, IMAP family member 1) | 0.66 | inactive |
| GIMAP1 (GTPase, IMAP family member 1) | 0.93 | inactive |
| GIMAP1 (GTPase, IMAP family member 1) | 0.74 | inactive |
| SLC25A35 | -0.77 | inactive |
| SLC25A35 | -0.8 | inactive |
| SLC25A35 | -1.09 | inactive |
| SLC25A35 | -0.82 | inactive |
| BMP7 (bone morphogenetic protein 7) | -1.92 | active |
| BMP7 (bone morphogenetic protein 7) | -1.35 | inactive |
| BMP7 (bone morphogenetic protein 7) | -1.81 | active |
| BMP7 (bone morphogenetic protein 7) | -1.57 | active |
| DTL (denticleless E3 ubiquitin protein ligase adapter) | 0.51 | inactive |
| DTL (denticleless E3 ubiquitin protein ligase adapter) | -0.15 | inactive |
| DTL (denticleless E3 ubiquitin protein ligase adapter) | 0.12 | inactive |
| DTL (denticleless E3 ubiquitin protein ligase adapter) | 0.29 | inactive |
| TMEM186 (transmembrane protein 186) | -0.39 | inactive |
| TMEM186 (transmembrane protein 186) | 0.62 | inactive |
| TMEM186 (transmembrane protein 186) | 0.78 | inactive |
| TMEM186 (transmembrane protein 186) | 1.51 | inactive |
| LINC00452 (long independently transcribed non-coding RNA 452) | 0.42 | inactive |
| LINC00452 (long independently transcribed non-coding RNA 452) | 0.57 | inactive |
| LINC00452 (long independently transcribed non-coding RNA 452) | 1.1 | inactive |
| LINC00452 (long independently transcribed non-coding RNA 452) | 1.46 | inactive |
| FBXL6 (F-box and leucine rich repeat protein 6) | 0.77 | inactive |
| FBXL6 (F-box and leucine rich repeat protein 6) | 0.3 | inactive |
| FBXL6 (F-box and leucine rich repeat protein 6) | 0.12 | inactive |
| FBXL6 (F-box and leucine rich repeat protein 6) | 0.53 | inactive |
| ZSCAN10 (zinc finger and SCAN domain containing 10) | 1.25 | inactive |
| ZSCAN10 (zinc finger and SCAN domain containing 10) | 0.57 | inactive |
| ZSCAN10 (zinc finger and SCAN domain containing 10) | 2.73 | inactive |
| ZSCAN10 (zinc finger and SCAN domain containing 10) | 1.87 | inactive |
| PRPF6 (pre-mRNA processing factor 6) | -0.68 | inactive |
| PRPF6 (pre-mRNA processing factor 6) | -0.18 | inactive |
| PRPF6 (pre-mRNA processing factor 6) | -1.3 | inactive |
| PRPF6 (pre-mRNA processing factor 6) | -0.45 | inactive |
| C14orf184 (retired record) | 1.35 | inactive |
| C14orf184 (retired record) | -0.01 | inactive |
| C14orf184 (retired record) | -1.23 | inactive |
| C14orf184 (retired record) | 0.93 | inactive |
| LY6G6C (lymphocyte antigen 6 family member G6C) | -0.88 | inactive |
| LY6G6C (lymphocyte antigen 6 family member G6C) | -0.96 | inactive |
| LY6G6C (lymphocyte antigen 6 family member G6C) | -1.17 | inactive |
| LY6G6C (lymphocyte antigen 6 family member G6C) | -0.83 | inactive |
| AGPAT2 (1-acylglycerol-3-phosphate O-acyltransferase 2) | -0.66 | inactive |
| AGPAT2 (1-acylglycerol-3-phosphate O-acyltransferase 2) | 0.73 | inactive |
| AGPAT2 (1-acylglycerol-3-phosphate O-acyltransferase 2) | -0.86 | inactive |
| AGPAT2 (1-acylglycerol-3-phosphate O-acyltransferase 2) | -0.1 | inactive |
| OR10H5 (olfactory receptor family 10 subfamily H member 5) | -0.01 | inactive |
| OR10H5 (olfactory receptor family 10 subfamily H member 5) | -0.19 | inactive |
| OR10H5 (olfactory receptor family 10 subfamily H member 5) | 0.02 | inactive |
| OR10H5 (olfactory receptor family 10 subfamily H member 5) | 0.43 | inactive |
| MX1 (MX dynamin like GTPase 1) | 0.7 | inactive |
| MX1 (MX dynamin like GTPase 1) | -0.87 | inactive |
| MX1 (MX dynamin like GTPase 1) | 1.9 | inactive |
| MX1 (MX dynamin like GTPase 1) | 1.65 | inactive |
| LGSN (lengsin, lens protein with glutamine synthetase domain) | -1.14 | inactive |
| LGSN (lengsin, lens protein with glutamine synthetase domain) | -0.47 | inactive |
| LGSN (lengsin, lens protein with glutamine synthetase domain) | -0.95 | inactive |
| LGSN (lengsin, lens protein with glutamine synthetase domain) | -0.88 | inactive |
| ULK3 (unc-51 like kinase 3) | -1.09 | inactive |
| ULK3 (unc-51 like kinase 3) | -0.55 | inactive |
| ULK3 (unc-51 like kinase 3) | -1.1 | inactive |
| ULK3 (unc-51 like kinase 3) | -0.25 | inactive |
| DTYMK (deoxythymidylate kinase) | -0.73 | inactive |
| DTYMK (deoxythymidylate kinase) | -0.77 | inactive |
| DTYMK (deoxythymidylate kinase) | 1.81 | inactive |
| DTYMK (deoxythymidylate kinase) | -0.58 | inactive |
| GARS1 (glycyl-tRNA synthetase 1) | -0.18 | inactive |
| GARS1 (glycyl-tRNA synthetase 1) | 1.99 | inactive |
| GARS1 (glycyl-tRNA synthetase 1) | 1.49 | inactive |
| GARS1 (glycyl-tRNA synthetase 1) | 2.96 | active |
| VPS39 (VPS39 subunit of HOPS complex) | 1.51 | inactive |
| VPS39 (VPS39 subunit of HOPS complex) | 1.95 | inactive |
| VPS39 (VPS39 subunit of HOPS complex) | -0.7 | inactive |
| VPS39 (VPS39 subunit of HOPS complex) | -0.68 | inactive |
| ALG14 (ALG14 UDP-N-acetylglucosaminyltransferase subunit) | 0.31 | inactive |
| ALG14 (ALG14 UDP-N-acetylglucosaminyltransferase subunit) | -0.32 | inactive |
| ALG14 (ALG14 UDP-N-acetylglucosaminyltransferase subunit) | -0.95 | inactive |
| ALG14 (ALG14 UDP-N-acetylglucosaminyltransferase subunit) | -0.72 | inactive |

Hits, among the entries above:
| gene | TNF reporter robust z-score | Outcome |
| --- | --- | --- |
| DET1 (DET1 partner of COP1 E3 ubiquitin ligase) | -1.67 | active |
| HDAC2 (histone deacetylase 2) | -1.59 | active |
| BMP7 (bone morphogenetic protein 7) | -1.92 | active |
| BMP7 (bone morphogenetic protein 7) | -1.81 | active |
| BMP7 (bone morphogenetic protein 7) | -1.57 | active |
| GARS1 (glycyl-tRNA synthetase 1) | 2.96 | active |
